Reference: PubChem BioAssay AID540276 (National Center for Advancing Translational Sciences (NCATS), 2011)
Hit rate of the full screen: of about 300,000 compounds, about 5,400 (1.8%) were called active. The inconclusive results got no clear call from the source; some entries with a clear call stand among them for comparison. Calls follow the shape of the full dose curve; tested in HEK293 cells. Potencies beside an inconclusive call are fits to weak or partial responses and may not hold up.

test: qHTS for inhibitors of binding or entry into cells for Marburg Virus; conditions: Marburg virus pseudotyped entry inhibition, cell reporter; activity change, negative = inhibition: at 37.8 µM (top of the series) unless noted
% is scaled to controls: 0 for no effect and ±100 for the full control effect; potency is read from the fitted curve at half-maximal effect.

SMILES	Potency	activity change, negative = inhibition
CCOC(=O)c1c(C)oc2c1c(C=NCc1ccccn1)c(O)c1ccccc12	inconclusive: 35.5 µM [inhibitor, single point]	–
COc1ccc(C(=O)C(C)OC(=O)c2cccc(S(=O)(=O)Nc3cc(Cl)c(OC)cc3OC)c2)cc1 (stereo not given)	active: 7.08 µM	–
O=C(COc1ccc(F)cc1)N1CCC(c2ccccc2)C1 (stereo not given)	–	inactive: 14.9%
O=c1cc(-c2ccccc2)nc2n1Cc1ccccc1-2	–	inactive: 0.542%
CN(C(=O)c1ccc(-c2nn(C)c(=O)c3ccccc23)cc1)C1CCCCC1	inconclusive: 35.5 µM [inhibitor, single point]	–
CC(=O)Nc1nc2ccccc2n1CCN1CCOCC1	–	inactive: -2.13%
CN1c2ccccc2-c2nc3ccccc3n2C1c1cccs1 (stereo not given)	inconclusive: 14.1 µM [inhibitor, partial curve, poor fit]	–
CCOC(=O)Cn1nnnc1C(CC)N(Cc1cccs1)Cc1cc2cc(C)ccc2[nH]c1=O (stereo not given)	active: 15.8 µM	–
COc1ccccc1NS(=O)(=O)c1ccc2nc(CCl)[nH]c2c1	–	inactive: 1.61% [at 46.1 µM]
COc1ccc(Cn2ccnc2SCC(=O)NC2CCCC2)cc1	inactive	–
O=c1c2ccccc2oc2nc(-c3ccco3)n(CCc3ccccc3)c(=O)c12	–	inactive: -0.915%
Cc1ccc(C2Oc3ccccc3C3=C2C(c2cccs2)n2ncnc2N3)cc1 (stereo not given)	inconclusive: 18.3 µM [inhibitor, partial curve]	–
O=c1c(Cc2ccc(Cl)cc2)c(O)ccn1Cc1ccccc1	–	inactive: 4.47% [at 46.1 µM]
Cc1ccc(N2CC(c3nnc(Cc4ccc(F)cc4)o3)CC2=O)cc1 (stereo not given)	–	inactive: -0.0916% [at 46.1 µM]
COc1ccccc1NC(=O)c1cc(-c2ccc(OC)c(OC)c2)nc2ccccc12	–	inactive: 4.4% [at 46.1 µM]
Cc1nnc(SCC(=O)Nc2ccc(N3CCN(S(C)(=O)=O)CC3)cc2)o1	inconclusive: 12.6 µM [activator, partial curve, poor fit]	–
CC(O)CN(CCC(N)=O)CCC(N)=O (stereo not given)	inconclusive: 32.6 µM [activator, single point]	–
O=C1NC(=O)N(c2ccccc2)C1=O	–	inactive: 12.1% [at 46.1 µM]
c1ccc(C2CCCN(Cc3nc(CC4CC4)no3)CC2)cc1 (stereo not given)	inconclusive: 5.62 µM [activator, single point]	–
CCN(CC)c1ccc(/C=N/NC(=O)c2cccc(S(=O)(=O)Nc3ccccc3OC)c2)c(O)c1	active: 5.62 µM	–
CCCCn1c(N)c(N(CCOC)C(=O)COc2ccc(Cl)cc2)c(=O)[nH]c1=O	inconclusive: 11.2 µM [activator, single point]	–
Cc1ccc(Oc2ccc(NC(=O)CCC(=O)OCC(=O)c3cccs3)cc2)cc1C	inconclusive: 20 µM [activator, partial curve, poor fit]	–
Cc1ccc(N2C(=O)C(CN3CCCCC3)C2c2ccccc2)cc1 (stereo not given)	inconclusive: 8.91 µM [inhibitor, single point]	–
O=C(O)C1C2CCC(O2)C1C(=O)O (stereo not given)	inconclusive: 35.5 µM [inhibitor, single point]	–

By substructure, the compounds so far with a furan ring, fused or not
SMILES	Potency	activity change, negative = inhibition
CCOC(=O)c1c(C)oc2c1c(C=NCc1ccccn1)c(O)c1ccccc12	inconclusive: 35.5 µM [inhibitor, single point]	–
O=c1c2ccccc2oc2nc(-c3ccco3)n(CCc3ccccc3)c(=O)c12	–	inactive: -0.915%

(continued)

SMILES	Potency	activity change, negative = inhibition
COc1ccccc1N1CCN(C(=O)CCc2ccc(S(=O)(=O)NCC(C)C)cc2)CC1	inconclusive: 3.55 µM [inhibitor, single point]	–
C/C(=N\NC(=O)c1cc(O)ccc1O)c1cccc(NC(=O)c2ccc(Cl)cc2)c1	inconclusive: 35.5 µM [inhibitor, single point]	–
CCn1cc([N+](=O)[O-])c(C(=O)N2CCOCC2)n1	inconclusive: 31.6 µM [activator, single point]	–
CCN1C(=O)/C(=C/c2cnn(CC)c2C)SC1=S	inconclusive: 3.16 µM [activator, full curve, poor fit]	–
Cc1cc(/C=C(\C#N)C(=O)Nc2ccccc2)c(C)n1-c1ccc2c(c1)OCO2	inconclusive: 14.6 µM [inhibitor, partial curve, poor fit]	–
O=C(Nc1ccccc1C(F)(F)F)c1ccc(CN2CCC(Cc3ccccc3)CC2)cc1	inconclusive: 35.5 µM [inhibitor, single point]	–
O=c1c2ccccc2nc(-c2ccc(Br)cc2)n1Cc1ccccc1	inconclusive: 29.1 µM [inhibitor, single point]	–
COc1cc(NC(=O)c2ccccc2-n2cnnn2)cc(OC)c1	inconclusive: 35.5 µM [activator, partial curve, poor fit]	–
CCCC[N+]12CCC(CC1)C(Cc1ccccc1)C2 (stereo not given)	–	inactive: 19.2% [at 46.1 µM]
O=S(=O)(c1ccc2c(c1)OCCO2)N1CCc2ccccc21	inconclusive: 8.91 µM [inhibitor, partial curve, poor fit]	–
CCOC(=O)N1CCN(Cc2nc3cc(NC(=O)c4ccco4)ccc3n2CC)CC1	inconclusive: 35.5 µM [activator, single point]	–
COc1ccccc1CN1CCCC(CN(CCN(C)C)C(=O)C2CCCC2)C1 (stereo not given)	inconclusive: 8.91 µM [inhibitor, partial curve, poor fit]	–
COc1ccc(/C=C/C(=O)c2ccc(NC(=O)c3cccs3)cc2)cc1OC	inconclusive: 29.1 µM [inhibitor, single point]	–
Cc1ccc(OCC(=O)NCCC2=CCCCC2)cc1	inconclusive: 1.84 µM [activator, partial curve, poor fit]	–
Cc1c(C(=O)N2CCCCC2C)sc2ncnc(N3CCc4ccccc4C3)c12 (stereo not given)	inconclusive: 25.1 µM [inhibitor, partial curve, poor fit]	–
CCOc1ccc(Nc2nnc(Cc3ccc(OC)cc3)c(=O)[nH]2)cc1	–	inactive: 3.25% [at 46.1 µM]
Cc1cc(C(=O)COC(=O)C23CC4CC(CC(O)(C4)C2)C3)c(C)n1-c1c(C)n(C)n(-c2ccccc2)c1=O	–	inactive: -5.39%
COCCn1cnnc1SCC(=O)Nc1ccccc1C(=O)Nc1ccc2c(c1)OCO2	inconclusive: 29.1 µM [activator, single point]	–
Cc1ccc(NC(=O)CN(C)C(=O)CSc2nnc(NC(C)C)s2)cc1	–	inactive: -6.59%
COc1ccc(C)cc1NC(=O)Nc1cccc(C(=O)O)c1	inconclusive: 29.1 µM [activator, single point]	–
CC(/C=N/N1CCN(c2ccccc2)CC1)=C\c1ccccc1	–	inactive: 23.1%
CCOc1ccc(-n2ccc(=O)c(C(=O)O)n2)cc1	–	inactive: -14.5% [at 46.1 µM]
CCOC1Cc2ccccc2N(C(N)=O)c2ccccc21 (stereo not given)	–	inactive: -16.1%
CC(=O)Nc1cn(-c2ccccc2)nc1-c1ccccc1	inconclusive: 31.6 µM [activator, single point]	–

Look-ups from the entries so far.
Entry of Cc1ccc(NC(=O)CN(C)C(=O)CSc2nnc(NC(C)C)s2)cc1 under activity change, negative = inhibition: inactive: -6.59%
Entry of Cc1ccc(N2C(=O)C(CN3CCCCC3)C2c2ccccc2)cc1 (stereo not given) under Potency: inconclusive: 8.91 µM [inhibitor, single point]

Additional structures

SMILES	Potency	activity change, negative = inhibition
Cc1cccn2c(=O)c3cc(C(=O)NCC4CCCO4)c(=N)n(CCc4ccccc4)c3nc12 (stereo not given)	inconclusive: 5.62 µM [inhibitor, single point]	–
Cc1ccc(S(=O)(=O)CCC(=O)NC2CCCC2)cc1	–	inactive: 11.7% [at 46.1 µM]
COc1cccc(-n2nc(C#N)c(Cl)cc2=O)c1	inconclusive: 10 µM [inhibitor, partial curve, poor fit]	–
COc1cccc(CNC(=O)c2ccc(CSc3nc4ccncc4n3Cc3cccc(C)c3)cc2)c1	inconclusive: 11.2 µM [inhibitor, partial curve, poor fit]	–
COc1cccc(OC)c1OCCCCN1CCC(Cc2ccccc2)CC1	inconclusive: 12.6 µM [inhibitor, single point]	–
COc1ccc(C(=O)NCN2CCN(c3ccccc3)CC2)cc1OC	inconclusive: 0.708 µM [activator, partial curve, poor fit]	–
CCN(CC(=O)NCc1ccc(F)cc1)C(=O)/C=C/c1cccs1	inconclusive: 0.562 µM [activator, full curve, poor fit]	–
Cc1cc(C)nc(SCc2nnc(SCC(=O)Nc3nc(-c4ccccc4)cs3)n2C)n1	–	inactive: -17.6%
CCOc1ccc(NS(=O)(=O)c2ccc(NC(=S)NC(C)=O)cc2)cc1	–	inactive: -15.1%
Cc1ccc(OCCn2c(Br)nc3c2c(=O)n(C)c(=O)n3C)cc1	–	inactive: 2.5%
O=C(Nc1ccc2nc(SCC(=O)N3CCCc4ccccc43)sc2c1)c1cccc(F)c1	inconclusive: 35.5 µM [inhibitor, single point]	–
Nc1ccccc1C(=O)/C=C/c1ccc2c(c1)OCO2	inconclusive: 5.31 µM [activator, single point]	–
O=C(Nc1ccc(F)c(F)c1)c1ccc2c(c1)OCO2	–	inactive: -10.8%
Fc1ccc(NC(=S)N2CCn3cccc3C2c2cccnc2)cc1 (stereo not given)	inconclusive: 1.41 µM [inhibitor, partial curve, poor fit]	–
CC(C)[C@H](NS(=O)(=O)c1ccccc1)C(=O)OCC(=O)N1N=C(c2ccc(Cl)cc2)CC1c1ccco1 (stereo not given in full)	inconclusive: 20 µM [inhibitor, single point]	–
CCOc1ccc2c(c1)-c1c(ssc1=S)C(C)(C)N2C(=O)CSC1=NCCS1	inconclusive: 35.5 µM [inhibitor, single point]	–
Cn1ccnc1SCC(=O)n1c2c(c3ccccc31)CCCC2	–	inactive: 27.9%
COc1cc(-c2nnc(SCCOc3ccc(Cl)cc3C)o2)cc(OC)c1OC	inconclusive: 8.91 µM [activator, partial curve, poor fit]	–
N#Cc1c(SCc2cccc(Cl)c2)sc(C(=O)c2ccccc2)c1N	inconclusive: 7.94 µM [inhibitor, partial curve]	–
Cc1nn(C)cc1S(=O)(=O)N1CCN(c2cccc(Cl)c2)CC1	inconclusive: 1.26 µM [activator, single point]	–
CC(C)CN(C(=O)CN1CC=C(c2ccccc2)CC1)c1c(N)n(CC(C)C)c(=O)[nH]c1=O	–	inactive: -10.6%
COc1ccc(S(=O)(=O)N2CCOCC2)cc1NC(=O)CSc1nnc(N)s1	inconclusive: 12.6 µM [activator, single point]	–
